Experimental data taken from paper PMC9974451.

Columns and labels:
[1] = molecular target: His-importin 7 (Xenopus laevis) (Xenopus laevis); experiment: SEC; His-importin β : His-importin 7 : His-NOSIP at 1:1:3 in TPB; Superdex S200 increase 10/300 GL; fractions by SDS-PAGE, Coomassie; both purified
[2] = molecular target: His-importin 7 (Xenopus laevis) (Xenopus laevis); experiment: SEC; His-NOSIP preincubated with one His-tagged NTR at 1:1 in TPB, 1-2 h, 4 °C; Superdex S200 increase 10/300 GL; fractions by SDS-PAGE, Coomassie; both purified

B1: His-NOSIP (protein, UniProt Q9Y314 1-301)
chain: MTRHGKNCTAGAVYTYHEKKKDTAASGYGTQNIRLSRDAVKDFDCCCLSLQPCHDPVVTPDGYLYEREAILEYILHQKKEIARQMKAYEKQRGTRREEQKELQRAASQDHVRGFLEKESAIVSRPLNPFTAKALSGTSPDDVQPGPSVGPPSKDKDKVLPSFWIPSLTPEAKATKLEKPSRTVTCPMSGKPLRMSDLTPVHFTPLDSSVDRVGLITRSERYVCAVTRDSLSNATPCAVLRPSGAVVTLECVEKLIRKDMVDPVTGDKLTDRDIIVLQRGGTGFAGSGVKLQAEKSRPVMQA
binding [1]: binds | binding [2]: binds

These are yes or no findings as the source states them, for the method shown. Binding calls can cover weak binding; strength is not graded here. Tags and fused reporters may be left off the sequences shown.
